Reference: PMC10163288
This is one part of the list.

B1: il2ra_site1_2b5i_sap_10_mot_HHH_b1_02271_000000068_0001_1_16_H_._HHH_b2_04442_af2_0001_0000300031_0000001_0_0001 (protein)
chain: SSSDEDHELTRFAVRVVWQLMVRLGLSAEQAHELNKLAVELVDEGYSEEEIEKILRELAEELSSS
B2: il2ra_site1_3nfp_sap_10_mot_07104d7dbe42e49ee5b1eb09eb0325d4_0001_1_000000060_0001_1_15_H_._a3670c5829215c526ff869221da29923_0001_af2_0001_0000200004_0000001_0_ … (protein)
chain: SSSSDVRKEFQRLVRELRKLNKEGDKERARELLEELERIVEEVNDEIAKRLLRQLEEAVESSSSS
B3: il2ra_site1_1z92_sap_10_mot_HHH_b2_00249_af2_000000052_0001_39_52_H_._HHH_b2_00694_af2_0001_0000200005_0000001_0_0001 (protein)
chain: SSSSDEEELEELAELVMEAMRKWDRELLEHLLELLEELIKKTGDPSARRVLEELEEYLKMLSSSS
B4: il2ra_site1_3nfp_normal_mot_HHH_b1_05931_000000015_0001_42_57_H_._c0fd2ee23bf7eac90f0defb3b9babf8d_0001_0001_0000300012_0000001_0_af2pred_0001_af2pred_1_swapped (protein)
chain: SEASRIFKEVSRRGLLSPEAVQAIFELARRIVRKGDPELLRLYREIIELLKRNVEEAEELAEKLR
B5: il2ra_site2_3nfp_normal_mot_HHH_b2_05976_000000001_0001_22_38_H_._HHH_b2_06395_0002_0000200077_0000001_0 (protein)
chain: SSSDEEEVEKLLRQAEEKLEEGNPEEARRLLQEAALLAAELRNHEAFALVLEVLARFIQANSSSS
B6: il2ra_site1_3nfp_sap_14_mot_HHH_b2_07180_000000236_0001_22_38_H_._1ea06dbd6b6845823c0bc83f2773458f_0001_1_af2_0001_0000300013_0000001_0_0001 (protein)
chain: DADEYLVEVALRDANGNPELAVEWLERVAEQTGVPPEALERAVEEVLEKTGDPLVELILELLKRK
B7: il2ra_site2_3nfp_normal_mot_HHH_b1_01086_af2_000000264_0001_39_53_H_._HHH_b1_01084_0001_0000100005_0000001_1_af2pred_0001_af2pred (protein)
chain: SSSSSSSEEEVERLLEEAERVDEEERLHLLAQAVIVAMEANDPELLELVEKASRELQGSSSSSSS
B8: il2ra_site1_1z92_sap_14_mot_HHH_b1_04602_000000153_0001_1_19_H_._HHH_b1_00430_0001_0000200020_0000001_0_0001_af2pred_0001_af2pred (protein)
chain: SSSSSEEVSRFLLEQAERAFELNNEKLLKRLLEMIEKAVEEEGDPAFEEALKKVEKLLRELSSSS
B9: il2ra_site1_1z92_sap_16_mot_e13e5361d6bfe40ac0affc314a60e3b1_0001_af2_000000276_0001_36_50_H_._HHH_b1_08148_0001_0000100003_0000001_0_0001_af2pred_0001_af2pred_ … (protein)
chain: DLERAVRKFAEVAAKLAGVPSVEVELRNNEIHVTVEGNEEASETLERLIRAAARLLGVPVTVETE
B10: il2ra_site1_3nfp_sap_18_mot_HHH_b2_03135_af2_000000097_0001_42_55_H_._HHH_b2_05121_0001_0000400027_0000001_0_0001_af2pred_0001_af2pred_1 (protein)
chain: SLEEAEEELVKIAVRLNNPKLLRKILRAAEVFFGNPEEAEEFLHEAIEKVLGDPEEAERLVREAK
B11: il2ra_site1_3nfp_normal_mot_HHH_b1_01158_af2_000000001_0001_41_55_H_._7bb551d7edbef81cbb21b497237068a3_0001_0001_0000500024_0000001_0 (protein)
chain: DLEEILQRIEEILEELNTKMARDLLKAIEFLRRAAPPEEVIKAILWAAEAAGDPEVVRLLREAVK
B12: il2ra_site2_2erj_normal_mot_90f6a21de4ed711cb697bb9f61d9c40c_0001_af2_000000135_0001_36_50_H_._HHH_b2_03327_0002_0000100003_0000001_0_1_af2pred_0001_af2pred_swa … (protein)
chain: SSSDREEVAERVVEELVKELGLDEEAQKLLEASARSAIEAGASPEEIELFLRLMAEFLLERLSSS
B13: il2ra_site1_3nfp_normal_mot_e63b485c515f68499f2ec453e144b8a1_0001_af2_000000158_0001_38_51_H_._HEEHE_3312_0001_0000100021_0000001_0 (protein)
chain: DQEEEAERLAELLARAANVDEVSVEQENGEITVTFKGNDLDVKHAAKAAEKAAEALGVPLEVTTE
B14: il2ra_site2_2erj_sap_27_mot_c2bf78bdce995293a161f7082e24b401_0001_af2_000000000_0001_17_32_H_._HHH_b1_00672_0001_0000500047_0000001_0_0001 (protein)
chain: DEAEEIVKEIRELVERDSEEARERVREILEEVDKDTELSRAVMELAREDPRLQRAFYLAMRIAFS
B15: il2ra_site2_2erj_sap_18_mot_87b7e031a888ead1881e674a44c3f2a3_0001_1_af2_000000022_0001_37_50_H_._HHH_b2_01082_0001_0000600018_0000001_1_0001 (protein)
chain: NLIERFAQRQLEDGVPPEDIARSLLIALKAQGVPPEEVREIVRKVLEELLGNPEEAEEVLKRAEK
B16: il2ra_site2_3nfp_normal_mot_HHH_b1_05437_000000005_0001_40_57_H_._HHH_b2_00498_0001_0000300006_0000001_0 (protein)
chain: SSSSDEEQEEVEELLEEAKRIEDPEERRRVLAEATNIAYEAGDFEAFALVAEVLTELEHRSSSSS
B17: il2ra_site2_3nfp_normal_mot_HHH_b1_02297_000000279_0001_41_58_H_._HHH_b2_07462_af2_0001_0000200007_0000001_0_af2pred_0001_af2pred_swapped (protein)
chain: SSSSDEEIEEEVEKLLEEARKIEDEEEVKQILAKAALLAAEANNEELFAAVNEAFFELVASSSSS
B18: il2ra_site2_2erj_sap_30_mot_HHH_b1_08096_000000157_0001_36_51_H_._HHH_b1_06625_0001_0000500025_0000001_0_0001 (protein)
chain: SSSSSEKLHELYELLVILLRLVWEGDEEEFERVLEEAEELAEELNSRSAEEHLKLLKEQLSSSSS
B19: il2ra_site2_3nfp_normal_mot_HHH_b1_02096_000000221_0001_22_38_H_._HHH_b2_01811_0001_0000200024_0000001_1 (protein)
chain: SSSSSDELEALLQSAENLAKRIEDPEERRELEELIEELKEEGDPELAFELYELVAEILLGSSSSS
B20: il2ra_site2_2erj_normal_mot_HHH_eva_0142_000000014_0001_43_61_H_._HHH_b1_01907_0001_0000500019_0000001_0 (protein)
chain: SSSSSSDLEEEIEELIERAKKVEDPARAASILIEAVLLALELGNEELFREVSRLFEEVYSSSSSS
B21: il2ra_site2_3nfp_sap_27_mot_HHH_b1_07764_000000013_0001_24_39_H_._0298092c85f5e659a7318f113fe2d0a1_0001_0001_0000300021_0000001_0_0001_1 (protein)
chain: SSSSDEEVQEEVERLLEEAKHIEDPFELFAVLADARALAVQANDEELERLVARVSLELMQHSSSS
B22: il2ra_site1_3nfp_normal_mot_HHH_b2_05589_af2_000000178_0001_1_18_H_._HHH_b2_04217_af2_0001_0000100002_0000001_0_af2pred_0001_af2pred_1 (protein)
chain: SSSSSEELRELSELDRRLKEAIKEGDKEEAERIAEEAERLAEELGDELAQRLIRALLRLASSSSS
B23: il2ra_site1_2b5i_sap_15_mot_a1647c6a1bc1795bd61f8ac90a0f45d0_0001_1_000000140_0001_54_65_H_._HHH_b1_06101_af2_0001_0000100002_0000001_0_0001_af2pred_dldesign_0_ … (protein)
chain: SSSSSSDIEALIARAKELAAAGRRREALELLEEAYKLASAADDDELQDEIEALARELASSSSSSS
B24: il2ra_site2_2erj_sap_20_mot_HHH_b1_06196_000000171_0001_40_57_H_._HHH_b2_00375_af2_0001_0000300015_0000001_0_0001 (protein)
chain: SSSSSSVEEEVRKLLEEAERLYEEGNLHEVFRLAVEALRLASEHNNDELLEEIAEVVERLSSSSS
B25: il2ra_site1_3nfp_normal_mot_HHH_b1_01335_af2_000000258_0001_39_53_H_._HHH_b2_07455_0001_0000100003_0000001_0_af2pred_dldesign_0_af2pred (protein)
chain: SSSSSSAESKEALKLFEQASKEKDRKKAKEILEKALELAKKGGAKLLVKFIERCIKSLLSSSSSS
B26: il2ra_site2_3nfp_sap_21_mot_HHH_b1_04032_000000208_0001_43_56_H_._HHH_b1_03418_0001_0000100007_0000001_0_0001_af2pred_0001_af2pred_1_swapped (protein)
chain: SSSSSEAEEELERLLRELEELLKRDPEEARKLSEEASKLAREANDEEIFLLLLEIYRRLQSSSSS
B27: il2ra_site1_2b5i_sap_15_mot_HHH_b1_01540_000000292_0001_42_56_H_._HHH_b2_03309_0001_0000600018_0000001_1_0001_af2pred_dldesign_0_af2pred (protein)
chain: SSSSDPYDRIYDLYKEILKLIKQHKYEEASKLLKEALALAEALGDEKLVAELKWLEEHFKSSSSS
B28: il2ra_site1_3nfp_normal_mot_ems_3hC_836_0002_000000087_0001_24_40_H_._HHH_b1_02452_0001_0000300040_0000001_0_af2pred_0001_af2pred (protein)
chain: SSSSSDVKREAWRLLEEALKALLNGNPEEARKLLEEALELAEEAGSELLEKMIREAEEVLSSSSS
B29: il2ra_site2_3nfp_normal_mot_HHH_b2_00102_000000046_0001_18_35_H_._HHH_b1_05569_0001_0000600042_0000001_0_af2pred_0001_af2pred (protein)
chain: SSSSSSDLADEARKALRIAWERGDLRTAARLFLLSRKVTEEGDPELEEELEELIRELLSSSSSSS
B30: il2ra_site2_3nfp_sap_21_mot_HHH_b1_00660_af2_000000199_0001_40_57_H_._HHH_b2_02243_0001_0000400028_0000001_0_0001 (protein)
chain: SSSSDKAEEYARIALELAKRALEDGDPESAKRILETALLAARDQGDPELQEEIERLLEEISSSSS
B31: il2ra_site1_3nfp_normal_mot_HHH_b1_01788_af2_000000237_0001_41_55_H_._HHH_b2_06615_0001_0000500018_0000001_0 (protein)
chain: SSSSSDKEVWRRVSELLHRAAKVSEEETEQLLREAKELAEEANDPSVKRAVEFYERILRRSSSSS
B32: il2ra_site1_3nfp_normal_mot_HHH_b2_08194_000000107_0001_25_41_H_._HHH_b2_00712_0001_0000300009_0000001_0_af2pred_0001_af2pred_1 (protein)
chain: SSSSSDQEELEELAEEAKELAKEIEDEKNRRFLEEVAEALERSGNPRYFKSLEIALRLAESSSSS
B33: il2ra_site2_3nfp_normal_mot_HHH_b1_04781_af2_000000057_0001_1_18_H_._HHH_b1_08047_af2_0001_0000100001_0000001_0 (protein)
chain: SSSSDEEQERVIELAIESLEALGNEELAEEARELLEEFREKGDPRVLLEVYKLLREAYHLSSSSS
B34: il2ra_site2_2erj_sap_18_mot_HHH_b2_02558_af2_000000162_0001_1_21_H_._22aa8d8ad8dce7f663ea8fa348a52261_0001_0001_0000100003_0000001_0_0001 (protein)
chain: SSSSDEESEEIREEIEELFREARERNDLHLLYEIAVRVMHLAHRLNDPELHRLTRKIAEEASSSS
B35: il2ra_site1_3nfp_normal_mot_HHH_b1_08527_000000299_0001_1_18_H_._HHH_b1_00781_0001_0000300028_0000001_1 (protein)
chain: SSSSDKEELLQEFQKIAFELSRLGDTQAFRLVAELAEEADKEGDPRYLEEAEEILEEVRRSSSSS
B36: il2ra_site2_3nfp_normal_mot_HHH_b2_05281_000000198_0001_39_56_H_._HHH_b2_04257_0001_0000800084_0000001_0 (protein)
chain: SSSSDKEERIEKLIEEAEKALEEGNPEEAQRILAEATRLAFESNNPRLFFRIAELAYKVYSSSSS
B37: il2ra_site1_2b5i_normal_mot_a7d4ab743ae57deeac5d741f7278d18b_0001_af2_000000162_0001_36_49_H_._HHH_b1_06005_af2_0001_0000100005_0000001_0 (protein)
chain: SSSSDDSEIALELAERHLKEARERGDEILLENVFRLARKDLERLGDPEAVEELEEFLERLSSSSS

What follows are binders tested against il2ra, P01589 (assay: yeast display titration).

Apparent Kd, inactive:
B1 no binding seen
B2 no binding seen
B3 no binding seen
B4 no binding seen
B5 no binding seen
B6 no binding seen
B7 no binding seen
B8 no binding seen
B9 no binding seen
B10 no binding seen
B11 no binding seen
B12 no binding seen
B13 no binding seen
B14 no binding seen
B15 no binding seen
B16 no binding seen
B17 no binding seen
B18 no binding seen
B19 no binding seen
B20 no binding seen
B21 no binding seen
B22 no binding seen
B23 no binding seen
B24 no binding seen
B25 no binding seen
B26 no binding seen
B27 no binding seen
B28 no binding seen
B29 no binding seen
B30 no binding seen
B31 no binding seen
B32 no binding seen
B33 no binding seen
B34 no binding seen
B35 no binding seen
B36 no binding seen
B37 no binding seen

Two entries picked at random from those above:
Apparent Kd, inactive:
B22 no binding seen
B2 no binding seen
